This note sets out measurements from the supplement of paper PMC5836539.

Sequences of proteins named here, by UniProt entry; tags and fusion partners are left off. A change or cut given only in a name is not applied to a line headed by its entry.
UniProt Q14241: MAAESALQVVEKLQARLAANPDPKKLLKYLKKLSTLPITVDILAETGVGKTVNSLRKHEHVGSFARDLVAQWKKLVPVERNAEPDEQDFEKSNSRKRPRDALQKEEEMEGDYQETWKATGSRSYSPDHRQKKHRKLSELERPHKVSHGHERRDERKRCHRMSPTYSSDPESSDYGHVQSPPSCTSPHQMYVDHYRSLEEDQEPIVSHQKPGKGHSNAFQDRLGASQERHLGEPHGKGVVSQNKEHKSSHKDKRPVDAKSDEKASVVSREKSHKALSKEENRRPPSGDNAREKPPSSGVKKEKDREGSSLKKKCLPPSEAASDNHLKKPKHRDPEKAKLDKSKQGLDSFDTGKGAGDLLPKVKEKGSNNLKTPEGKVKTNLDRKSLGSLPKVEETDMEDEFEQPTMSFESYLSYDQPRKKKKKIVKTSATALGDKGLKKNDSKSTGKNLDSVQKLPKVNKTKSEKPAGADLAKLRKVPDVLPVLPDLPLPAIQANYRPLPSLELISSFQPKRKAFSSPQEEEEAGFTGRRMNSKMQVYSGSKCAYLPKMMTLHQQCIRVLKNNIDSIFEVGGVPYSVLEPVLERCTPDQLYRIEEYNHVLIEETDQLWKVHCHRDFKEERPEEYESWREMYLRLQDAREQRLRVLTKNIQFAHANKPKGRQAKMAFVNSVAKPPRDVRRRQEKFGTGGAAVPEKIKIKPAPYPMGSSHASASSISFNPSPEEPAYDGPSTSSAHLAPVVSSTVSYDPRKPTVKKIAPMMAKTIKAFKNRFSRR
UniProt P78332: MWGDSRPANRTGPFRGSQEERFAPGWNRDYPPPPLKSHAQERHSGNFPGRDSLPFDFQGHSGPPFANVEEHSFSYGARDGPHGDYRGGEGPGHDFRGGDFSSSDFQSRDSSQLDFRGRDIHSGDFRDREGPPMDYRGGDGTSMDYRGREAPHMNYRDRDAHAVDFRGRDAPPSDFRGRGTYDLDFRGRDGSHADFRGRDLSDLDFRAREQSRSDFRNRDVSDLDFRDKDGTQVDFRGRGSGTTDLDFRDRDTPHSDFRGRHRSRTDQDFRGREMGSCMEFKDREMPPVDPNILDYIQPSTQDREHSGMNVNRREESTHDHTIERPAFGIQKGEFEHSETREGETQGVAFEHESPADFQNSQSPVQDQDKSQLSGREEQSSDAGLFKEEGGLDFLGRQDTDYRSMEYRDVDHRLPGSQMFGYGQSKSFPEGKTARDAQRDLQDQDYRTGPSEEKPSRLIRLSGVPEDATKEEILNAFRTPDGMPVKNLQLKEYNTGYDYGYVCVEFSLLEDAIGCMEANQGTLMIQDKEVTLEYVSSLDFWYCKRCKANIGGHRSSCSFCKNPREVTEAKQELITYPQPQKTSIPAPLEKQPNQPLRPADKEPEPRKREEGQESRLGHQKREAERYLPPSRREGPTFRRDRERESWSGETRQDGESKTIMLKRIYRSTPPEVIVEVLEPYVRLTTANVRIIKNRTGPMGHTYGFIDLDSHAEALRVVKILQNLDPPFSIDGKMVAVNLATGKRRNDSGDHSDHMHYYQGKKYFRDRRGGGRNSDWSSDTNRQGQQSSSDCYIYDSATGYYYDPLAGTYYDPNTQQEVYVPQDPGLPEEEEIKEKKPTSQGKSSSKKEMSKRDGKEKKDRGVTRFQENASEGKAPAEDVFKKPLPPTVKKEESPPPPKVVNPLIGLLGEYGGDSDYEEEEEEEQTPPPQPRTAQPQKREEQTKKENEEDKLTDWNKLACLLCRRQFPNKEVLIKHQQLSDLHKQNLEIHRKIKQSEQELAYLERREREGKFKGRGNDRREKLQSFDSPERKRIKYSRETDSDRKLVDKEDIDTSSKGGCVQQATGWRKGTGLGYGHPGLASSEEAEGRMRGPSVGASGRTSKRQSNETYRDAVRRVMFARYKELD
UniProt P20962: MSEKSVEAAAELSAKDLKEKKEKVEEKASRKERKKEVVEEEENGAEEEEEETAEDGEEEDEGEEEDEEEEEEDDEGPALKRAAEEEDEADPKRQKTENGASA
UniProt Q9UQ35: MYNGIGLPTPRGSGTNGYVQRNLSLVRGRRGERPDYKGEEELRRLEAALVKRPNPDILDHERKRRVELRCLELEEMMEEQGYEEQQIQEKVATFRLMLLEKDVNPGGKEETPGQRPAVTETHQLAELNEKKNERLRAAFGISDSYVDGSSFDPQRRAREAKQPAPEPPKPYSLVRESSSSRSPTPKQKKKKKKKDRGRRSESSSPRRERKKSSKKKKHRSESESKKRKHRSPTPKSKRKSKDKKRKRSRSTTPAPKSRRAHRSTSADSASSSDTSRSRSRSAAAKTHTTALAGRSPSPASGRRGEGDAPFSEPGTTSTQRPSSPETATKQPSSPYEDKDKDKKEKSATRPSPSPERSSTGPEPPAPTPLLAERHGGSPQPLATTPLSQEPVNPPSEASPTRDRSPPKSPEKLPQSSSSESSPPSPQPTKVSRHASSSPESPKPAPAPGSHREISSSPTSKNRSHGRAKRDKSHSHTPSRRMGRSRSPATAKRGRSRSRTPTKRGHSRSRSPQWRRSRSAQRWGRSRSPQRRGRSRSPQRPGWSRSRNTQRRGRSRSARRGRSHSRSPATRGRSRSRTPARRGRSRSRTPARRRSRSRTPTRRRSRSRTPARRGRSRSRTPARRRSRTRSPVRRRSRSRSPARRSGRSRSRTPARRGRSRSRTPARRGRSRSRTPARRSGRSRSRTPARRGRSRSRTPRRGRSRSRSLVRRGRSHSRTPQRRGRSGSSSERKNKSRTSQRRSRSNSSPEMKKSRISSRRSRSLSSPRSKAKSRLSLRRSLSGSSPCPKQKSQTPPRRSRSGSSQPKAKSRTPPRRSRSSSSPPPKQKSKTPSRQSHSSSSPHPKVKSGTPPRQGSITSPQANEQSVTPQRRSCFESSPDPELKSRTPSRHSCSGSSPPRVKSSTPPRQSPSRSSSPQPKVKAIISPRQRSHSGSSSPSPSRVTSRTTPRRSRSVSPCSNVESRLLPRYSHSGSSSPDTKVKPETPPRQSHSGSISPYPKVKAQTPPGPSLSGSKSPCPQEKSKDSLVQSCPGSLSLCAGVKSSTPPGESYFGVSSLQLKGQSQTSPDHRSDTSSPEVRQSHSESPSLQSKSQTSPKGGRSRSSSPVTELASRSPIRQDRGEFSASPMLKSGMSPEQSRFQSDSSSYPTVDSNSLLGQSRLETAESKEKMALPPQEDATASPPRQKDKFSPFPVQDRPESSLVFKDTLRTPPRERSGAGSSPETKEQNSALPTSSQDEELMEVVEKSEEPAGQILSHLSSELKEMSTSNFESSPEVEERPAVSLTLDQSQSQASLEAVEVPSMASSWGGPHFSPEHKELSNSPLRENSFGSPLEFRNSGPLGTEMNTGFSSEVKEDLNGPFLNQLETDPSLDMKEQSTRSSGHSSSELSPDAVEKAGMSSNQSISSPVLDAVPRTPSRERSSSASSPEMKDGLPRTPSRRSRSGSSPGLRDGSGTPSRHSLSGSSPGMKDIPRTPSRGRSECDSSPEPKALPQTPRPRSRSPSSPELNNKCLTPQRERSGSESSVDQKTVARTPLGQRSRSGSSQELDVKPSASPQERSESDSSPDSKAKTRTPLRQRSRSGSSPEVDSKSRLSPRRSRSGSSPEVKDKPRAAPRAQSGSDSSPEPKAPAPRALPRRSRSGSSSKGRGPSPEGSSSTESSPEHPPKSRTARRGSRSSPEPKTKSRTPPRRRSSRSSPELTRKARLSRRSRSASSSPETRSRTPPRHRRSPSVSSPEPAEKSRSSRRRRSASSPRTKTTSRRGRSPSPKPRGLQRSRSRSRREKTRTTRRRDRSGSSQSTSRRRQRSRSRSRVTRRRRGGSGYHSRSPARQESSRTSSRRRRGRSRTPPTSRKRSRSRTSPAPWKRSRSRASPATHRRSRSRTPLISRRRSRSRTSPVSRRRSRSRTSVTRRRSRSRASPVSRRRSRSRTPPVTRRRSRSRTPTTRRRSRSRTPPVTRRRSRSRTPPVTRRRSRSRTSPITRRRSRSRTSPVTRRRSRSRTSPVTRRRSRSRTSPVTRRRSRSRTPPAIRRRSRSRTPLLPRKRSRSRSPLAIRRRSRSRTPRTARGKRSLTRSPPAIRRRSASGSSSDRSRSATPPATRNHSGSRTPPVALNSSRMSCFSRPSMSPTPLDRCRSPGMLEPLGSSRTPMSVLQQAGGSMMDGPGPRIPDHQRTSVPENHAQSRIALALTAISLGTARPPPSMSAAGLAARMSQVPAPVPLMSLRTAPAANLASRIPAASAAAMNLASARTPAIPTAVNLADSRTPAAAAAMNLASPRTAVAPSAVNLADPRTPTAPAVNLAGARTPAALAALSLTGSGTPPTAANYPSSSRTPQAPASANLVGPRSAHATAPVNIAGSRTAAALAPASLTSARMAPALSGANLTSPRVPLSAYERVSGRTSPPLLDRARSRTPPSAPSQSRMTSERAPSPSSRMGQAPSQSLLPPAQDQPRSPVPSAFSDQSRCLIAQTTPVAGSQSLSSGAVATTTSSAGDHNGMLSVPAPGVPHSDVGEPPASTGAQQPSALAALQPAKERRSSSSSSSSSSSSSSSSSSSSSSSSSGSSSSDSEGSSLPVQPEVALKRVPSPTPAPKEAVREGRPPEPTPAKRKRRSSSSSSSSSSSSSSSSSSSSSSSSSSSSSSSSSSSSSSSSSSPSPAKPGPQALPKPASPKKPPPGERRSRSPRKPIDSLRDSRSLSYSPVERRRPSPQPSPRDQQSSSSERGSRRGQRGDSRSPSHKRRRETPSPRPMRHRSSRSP
UniProt Q9UHB6: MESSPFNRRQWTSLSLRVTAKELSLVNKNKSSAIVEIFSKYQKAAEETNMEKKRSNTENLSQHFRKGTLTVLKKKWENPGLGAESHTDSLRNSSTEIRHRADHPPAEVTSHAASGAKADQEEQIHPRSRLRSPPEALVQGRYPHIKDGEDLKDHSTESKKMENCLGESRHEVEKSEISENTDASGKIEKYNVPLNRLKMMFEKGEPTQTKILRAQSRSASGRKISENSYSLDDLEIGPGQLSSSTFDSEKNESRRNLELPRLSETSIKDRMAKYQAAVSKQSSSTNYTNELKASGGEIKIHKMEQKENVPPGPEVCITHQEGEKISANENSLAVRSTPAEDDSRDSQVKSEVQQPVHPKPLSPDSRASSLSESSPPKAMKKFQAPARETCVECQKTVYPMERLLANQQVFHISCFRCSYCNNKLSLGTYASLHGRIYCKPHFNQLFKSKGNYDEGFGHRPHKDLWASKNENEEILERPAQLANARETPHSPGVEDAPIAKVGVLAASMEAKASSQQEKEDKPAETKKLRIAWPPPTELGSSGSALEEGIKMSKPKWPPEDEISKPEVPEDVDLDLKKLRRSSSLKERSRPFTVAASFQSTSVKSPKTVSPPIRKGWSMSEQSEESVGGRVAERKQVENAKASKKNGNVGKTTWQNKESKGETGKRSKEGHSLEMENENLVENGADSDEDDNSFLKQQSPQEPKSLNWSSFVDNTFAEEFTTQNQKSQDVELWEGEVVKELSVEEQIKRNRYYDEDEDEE
UniProt Q71U36, whole entry, looked up: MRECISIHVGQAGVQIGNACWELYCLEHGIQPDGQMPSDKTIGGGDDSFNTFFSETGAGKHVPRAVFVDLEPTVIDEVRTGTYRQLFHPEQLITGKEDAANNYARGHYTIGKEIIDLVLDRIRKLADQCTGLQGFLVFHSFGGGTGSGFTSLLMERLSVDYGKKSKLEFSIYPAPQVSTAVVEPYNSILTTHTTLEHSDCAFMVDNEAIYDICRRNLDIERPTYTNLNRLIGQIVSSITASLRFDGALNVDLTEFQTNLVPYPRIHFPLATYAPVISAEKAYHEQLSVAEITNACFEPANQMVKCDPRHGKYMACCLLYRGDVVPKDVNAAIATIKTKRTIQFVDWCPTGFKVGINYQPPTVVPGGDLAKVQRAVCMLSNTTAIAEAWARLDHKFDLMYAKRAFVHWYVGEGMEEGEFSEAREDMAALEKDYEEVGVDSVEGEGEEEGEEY
UniProt Q96CV9, whole entry, looked up: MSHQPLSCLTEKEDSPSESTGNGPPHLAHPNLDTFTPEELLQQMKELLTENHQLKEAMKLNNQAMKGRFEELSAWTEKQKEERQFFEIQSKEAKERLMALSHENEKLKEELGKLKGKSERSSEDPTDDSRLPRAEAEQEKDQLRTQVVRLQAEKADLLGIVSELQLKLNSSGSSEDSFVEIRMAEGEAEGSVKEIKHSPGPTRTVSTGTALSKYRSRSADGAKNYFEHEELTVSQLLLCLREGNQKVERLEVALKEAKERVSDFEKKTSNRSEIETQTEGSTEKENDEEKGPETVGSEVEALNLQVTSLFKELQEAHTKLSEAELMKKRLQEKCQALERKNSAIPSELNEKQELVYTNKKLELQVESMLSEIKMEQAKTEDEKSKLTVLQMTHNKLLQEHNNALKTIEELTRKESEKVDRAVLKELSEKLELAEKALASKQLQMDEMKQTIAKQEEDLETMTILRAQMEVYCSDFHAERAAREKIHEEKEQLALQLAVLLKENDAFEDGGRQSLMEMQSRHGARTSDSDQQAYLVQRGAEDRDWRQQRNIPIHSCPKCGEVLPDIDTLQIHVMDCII

± gives the standard deviation of the averaged measurements. Repeats in this data set agree poorly, so a single value says little.

Compound in the test: CC[C@@H](C)Nc1cc(C(=O)N[C@H]2C[C@H]3CC[C@@H](C2)N3c2ccc(C(=O)C3CC3)cn2)c(C)cc1C(N)=O [XL888]
The experiment in a line: phosphopeptide melting temperature shift (XL888 minus DMSO); higher = stabilised by drug treatment. Particulars: 100 µM; treatment time 2 h; layout: intact cells; SK-Mel 24. As for the experimental part: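 Phospho-TPP in intact SK-Mel 24 cells treated with 100 uM XL888 or DMSO for 2 h, heated at 10 temperatures (37-67 C) for 3 min, soluble fraction TMT10plex-labelled and TiO2 phospho-enriched. Melting curves were fitted per phosphopeptide; the value is the melting point difference (drug minus vehicle) in each of two biological replicates.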
On to “IPO5 phosphosite_827 (phosphosite position: 827) (UniProt O00410)”, for which the “phosphopeptide melting temperature shift” value was 0.325 °C.

Take “UniProt Q14241_phosphosite_151 (phosphosite position: 151)”: the “phosphopeptide melting temperature shift” value was -0.61 ± 0.12 °C.

“UniProt Q9H4L5-5_phosphosite_304 (phosphosite position: 304)”: the “phosphopeptide melting temperature shift” value is -0.205 °C. On to “ENO1 phosphosite_263 (phosphosite position: 263) (UniProt P06733)”, for which the “phosphopeptide melting temperature shift” value came to 1.2 ± 1.2 °C.

As for “UniProt Q16181-2_phosphosite_333 (phosphosite position: 333)”, the “phosphopeptide melting temperature shift” value came out at 0.41 ± 0.94 °C.

As to “TPD52L2 phosphosite_21 (phosphosite position: 21) (UniProt O43399)”, the “phosphopeptide melting temperature shift” value is 1.93 ± 0.39 °C. “UniProt P55209-2_phosphosite_69 (phosphosite position: 69)”: the “phosphopeptide melting temperature shift” value was -0.725 °C. Turning to “UniProt Q7Z4V5_phosphosite_652 (phosphosite position: 652)”, the “phosphopeptide melting temperature shift” value stood at 7.23 °C. For “CD2BP2 phosphosite_49 (phosphosite position: 49) (UniProt O95400)” the value was 2.56 °C.

For “UniProt Q00341_phosphosite_31 (phosphosite position: 31)”, the “phosphopeptide melting temperature shift” value was -0.256 °C.

Consider “PRPF4B phosphosite_277 (phosphosite position: 277) (UniProt Q13523)”, for which the “phosphopeptide melting temperature shift” value was -0.629 ± 0.32 °C. Under “UniProt Q13131_phosphosite_498 (phosphosite position: 498)” stands -0.249 °C; under “RBM6 phosphosite_891 (phosphosite position: 891) (UniProt P78332)”, 0.239 °C. As to “SP100 phosphosite_157 (phosphosite position: 157) (UniProt P23497)”, the “phosphopeptide melting temperature shift” value came to 1.45 ± 0.082 °C. Under “UniProt Q96TA1-2_phosphosite_679 (phosphosite position: 679)” stands 0.137 °C; under “UniProt P21333-2_phosphosite_968 (phosphosite position: 968)”, -0.943 °C. On to “DNMT1 phosphosite_143 (phosphosite position: 143) (UniProt P26358)”, for which the “phosphopeptide melting temperature shift” value came to 2.57 °C. Consider “UniProt Q86W92-2_phosphosite_597 (phosphosite position: 597)”, for which the “phosphopeptide melting temperature shift” value came out at 0.393 °C. For the target “MAP1B phosphosite_2072 (phosphosite position: 2072) (UniProt P46821)”, the “phosphopeptide melting temperature shift” value is -0.454 ± 0.58 °C.

In the case of “NMD3 phosphosite_470 (phosphosite position: 470) (UniProt Q96D46)”, the “phosphopeptide melting temperature shift” value worked out at 2.1 °C. Take “PTMS phosphosite_5 (phosphosite position: 5) (UniProt P20962)”: the “phosphopeptide melting temperature shift” value is -1.79 °C. For the target “SRRM2 phosphosite_333 (phosphosite position: 333) (UniProt Q9UQ35)”, the “phosphopeptide melting temperature shift” value came to 6.25 °C.

Consider “STX12 phosphosite_142 (phosphosite position: 142) (UniProt Q86Y82)”, for which the “phosphopeptide melting temperature shift” value was -0.714 ± 2 °C. Regarding “HNRNPUL2 phosphosite_161 (phosphosite position: 161) (UniProt Q1KMD3)”, the “phosphopeptide melting temperature shift” value was -0.435 °C. As to “UniProt Q3V6T2-5_phosphosite_1651 (phosphosite position: 1651)”, the “phosphopeptide melting temperature shift” value is 2.09 ± 0.34 °C. Take “UniProt O15344-2_phosphosite_96 (phosphosite position: 96)”: the “phosphopeptide melting temperature shift” value came out at 0.289 °C. Under “UniProt Q9Y4F5-3_phosphosite_290 (phosphosite position: 290)” stands 2.3 °C; under “UniProt Q86W92-2_phosphosite_596 (phosphosite position: 596)”, -0.142 °C.

For “RPS2 phosphosite_281 (phosphosite position: 281) (UniProt P15880)”, the “phosphopeptide melting temperature shift” value was -2.06 ± 1.6 °C.

For the target “HTATSF1 phosphosite_579 (phosphosite position: 579) (UniProt O43719)”, the “phosphopeptide melting temperature shift” value came to 2.1 °C. As for “SND1 phosphosite_426 (phosphosite position: 426) (UniProt Q7KZF4)”, the “phosphopeptide melting temperature shift” value came to 0.844 °C.

For the target “ANKS1A phosphosite_626 (phosphosite position: 626) (UniProt Q92625)”, the “phosphopeptide melting temperature shift” value was 0.994 °C.

Take “UniProt Q9BUQ8-2_phosphosite_14 (phosphosite position: 14)”: the “phosphopeptide melting temperature shift” value is -3.12 °C. On to “NRBP1 phosphosite_431 (phosphosite position: 431) (UniProt Q9UHY1)”, for which the “phosphopeptide melting temperature shift” value is -0.688 °C.

“UniProt Q9BV36_phosphosite_266 (phosphosite position: 266)”: the “phosphopeptide melting temperature shift” value is -0.702 °C. “UniProt Q05519-2_phosphosite_433 (phosphosite position: 433)”: the “phosphopeptide melting temperature shift” value was determined as 0.888 °C. In the case of “SRRM2 phosphosite_2397 (phosphosite position: 2397) (UniProt Q9UQ35)”, the “phosphopeptide melting temperature shift” value came out at 0.0483 °C. As to “LIMA1 phosphosite_490 (phosphosite position: 490) (UniProt Q9UHB6)”, the “phosphopeptide melting temperature shift” value is 3.3 °C. For the target “UniProt Q06210-2_phosphosite_243 (phosphosite position: 243)”, the “phosphopeptide melting temperature shift” value was -4.9 °C. Under “CCT2 phosphosite_260 (phosphosite position: 260) (UniProt P78371)” stands -0.563 °C.

Consider “PRKRA phosphosite_18 (phosphosite position: 18) (UniProt O75569)”, for which the “phosphopeptide melting temperature shift” value came to 0.879 °C. As for “AKT3 phosphosite_447 (phosphosite position: 447) (UniProt Q9Y243)”, the “phosphopeptide melting temperature shift” value was determined as 0.637 °C. Under “UniProt Q71U36-2_phosphosite_13 (phosphosite position: 13)” stands -0.724 °C; under “EIF5B phosphosite_164 (phosphosite position: 164) (UniProt O60841)”, 0.679 °C. With “SASH1 phosphosite_407 (phosphosite position: 407) (UniProt O94885)”, the “phosphopeptide melting temperature shift” value is -0.733 °C. Take “FASN phosphosite_2204 (phosphosite position: 2204) (UniProt P49327)”: the “phosphopeptide melting temperature shift” value is -0.173 ± 0.13 °C. On to “SLC4A1AP phosphosite_82 (phosphosite position: 82) (UniProt Q9BWU0)”, for which the “phosphopeptide melting temperature shift” value was -0.194 °C. “HNRNPU phosphosite_271 (phosphosite position: 271) (UniProt Q00839)”: the “phosphopeptide melting temperature shift” value is -1.53 ± 0.18 °C. On to “SQSTM1 phosphosite_24 (phosphosite position: 24) (UniProt Q13501)”, for which the “phosphopeptide melting temperature shift” value is 1.1 ± 1.6 °C. Turning to “UniProt Q96CV9-3_phosphosite_469 (phosphosite position: 469)”, the “phosphopeptide melting temperature shift” value was 0.126 °C.
